In the supplement of paper PMC3682954:
Where “and” joins values, the source holds several entries; their conditions need not be identical. Identical values can stand only once. Counter-ions that a name gives are not always drawn. ± gives the standard deviation of the averaged measurements. This is one part of the list. Single values are uncertain, as repeats are few or missing.

Tested on: RAW 264.7
Experiment: cell viability (MTT) relative to vehicle control; higher = more viable cells
Settings: stimulus: HMGB1 5 ug/ml, 18 h
[1] = compound concentration: 1 ug/ml

SMILES	cell viability (compound concentration: 3 uM)	cell viability [1] [%]
CO/N=C(\C(=O)N[C@@H]1C(=O)N2C(C(=O)OCOC(=O)C(C)(C)C)=C(/C=C\c3scnc3C)CS[C@H]12)c1csc(N)n1	104%	
CC(=O)Oc1c(C)c(C)c2c(c1C)CCC(C)(CCCC(C)CCCC(C)CCCC(C)C)O2 (racemic) [DL-a-Tocopherol acetate]		115
Cc1sc(N)c(C(=O)c2cccc(C(F)(F)F)c2)c1C	104%	
O=C(Nc1ccccc1)c1cc([N+](=O)[O-])ccc1Cl	102%	
C[N+]1(CCCCC[N+]2(C)CCCC2)CCCC1 [Pentolinium bitartrate]	93.3%	
C[N+]1(CCCCC[N+]2(C)CCCC2)CCCC1 [Pentolinium di[L(+)-tartrate]]	102%	
CCCc1cc(=O)[nH]c(=S)[nH]1 [Propylthiouracil]	94.8%	
CCCc1cc(=O)[nH]c(=S)[nH]1	102%	
COc1ccc(CCN(C)CCCC(C#N)(c2ccc(OC)c(OC)c2)C(C)C)cc1OC (centres undefined)	96.4% and 113%	96.5
COc1ccc(CCN(C)CCCC(C#N)(c2ccc(OC)c(OC)c2)C(C)C)cc1OC (centres undefined) [Verapamil]	115%	
COc1ccc(CCN(C)CCCC(C#N)(c2ccc(OC)c(OC)c2)C(C)C)cc1OC (centres undefined) [Verapamil hydrochloride]	106%	
Cc1onc(-c2ccccc2)c1-c1ccc(S(N)(=O)=O)cc1	92.7%	
O=C(O)c1cc(O)c2c(c1)C(=O)c1cccc(O)c1C2=O [Rhein]		116
CN1CCc2c(c3ccccc3n2Cc2ccccc2)C1	110%	
Fc1ccc(C(c2ccc(F)cc2)N2CCN(C/C=C/c3ccccc3)CC2)cc1 [Flunarizine 2HCl]	115%	
Fc1ccc(C(c2ccc(F)cc2)N2CCN(C/C=C/c3ccccc3)CC2)cc1 [Flunarizine dihydrochloride]	103 ± 2.9%	
Fc1ccc(C(c2ccc(F)cc2)N2CCN(C/C=C/c3ccccc3)CC2)cc1	100%	
Cn1c(NCCN(CCO)CCCc2ccc([N+](=O)[O-])cc2)cc(=O)n(C)c1=O	96.7%	
Cn1c(NCCN(CCO)CCCc2ccc([N+](=O)[O-])cc2)cc(=O)n(C)c1=O [Nifekalant]	106%	

SMILES	cell viability (compound concentration: 3 uM)	cell viability [1] [%]
COc1ccc2c(CN3CCOCC3)cc(=O)oc2c1		103
O=C(OC[C@H]1O[C@@H](OC(=O)c2cc(O)c(O)c(OC(=O)c3cc(O)c(O)c(O)c3)c2)[C@H](OC(=O)c2cc(O)c(O)c(OC(=O)c3cc(O)c(O)c(O)c3)c2)[C@@H](OC(=O)c2cc(O)c(O)c(OC(=O)c3cc(O)c(O)c(O)c3)c2)[C@@H]1OC(=O)c1cc(O)c(O)c(OC(=O)c2cc(O)c(O)c(O)c2)c1)c1cc(O)c(O)c(OC(=O)c2cc(O)c(O)c(O)c2)c1	109 ± 13%	
N=C(N)c1ccc(OCCCCCOc2ccc(C(=N)N)cc2)cc1	114%	
N=C(N)c1ccc(OCCCCCOc2ccc(C(=N)N)cc2)cc1 [Pentamidine isethionate]	93.3 ± 28%	
N=C(N)c1ccc(OCCCCCOc2ccc(C(=N)N)cc2)cc1 [Pentamidine]	135%	
CCCCC(=O)O[C@H]1CC[C@H]2[C@@H]3CCc4cc(O)ccc4[C@H]3CC[C@]12C [Estradiol Valerate]	104%	
CCCCC(=O)O[C@H]1CC[C@H]2[C@@H]3CCc4cc(O)ccc4[C@H]3CC[C@]12C [estradiol valerate]		105
CCCCC(=O)O[C@H]1CC[C@H]2[C@@H]3CCc4cc(O)ccc4[C@H]3CC[C@]12C	111%	
CC(=O)Nc1cc2ccccc2oc1=O [3-Acetamidocoumarin]	113%	
CC1(C)S[C@@H]2[C@H](NC(=O)[C@H](N)c3ccc(O)cc3)C(=O)N2[C@H]1C(=O)O	103%	
CC1(C)S[C@@H]2[C@H](NC(=O)[C@H](N)c3ccc(O)cc3)C(=O)N2[C@H]1C(=O)O [Amoxicillin]	91.6%	
Cn1cnc2c(NCc3ccccc3)nc(NCCO)nc21 [Olomoucine]	105%	
COc1cccc2c1C(=O)c1c(O)c3c(c(O)c1C2=O)C[C@@](O)(C(=O)CO)C[C@@H]3O[C@H]1C[C@H](N)[C@H](O)[C@H](C)O1 [Doxorubicin HCl]	13.9%	
COc1cccc2c1C(=O)c1c(O)c3c(c(O)c1C2=O)C[C@@](O)(C(=O)CO)C[C@@H]3O[C@H]1C[C@H](N)[C@H](O)[C@H](C)O1 [Doxorubicin hydrochloride]	2.84%	
COc1cccc2c1C(=O)c1c(O)c3c(c(O)c1C2=O)C[C@@](O)(C(=O)CO)C[C@@H]3O[C@H]1C[C@H](N)[C@H](O)[C@H](C)O1	3.64% and 12%	
CCC(=O)O[C@@H](O[P@](=O)(CCCCc1ccccc1)CC(=O)N1C[C@H](C2CCCCC2)C[C@H]1C(=O)O)C(C)C [Fosinopril]	104 ± 1.4%	
OCCOCCN1CCN(C2=Nc3ccccc3Sc3ccccc32)CC1	95.8% and 102%	
OCCOCCN1CCN(C2=Nc3ccccc3Sc3ccccc32)CC1 [Quetiapine Fumarate]	109%	
OCCOCCN1CCN(C2=Nc3ccccc3Sc3ccccc32)CC1 [Quetiapine]	120%	
